Experimental data from publication PMC11302887.

Molecular target: phosphorylated Protein kinase Cα (human (endogenous in platelets)) (UniProt P17252)
Assay: affinity purification with mass spectrometry; immunoprecipitation with an anti-p-PKCα antibody from platelet membrane proteins of breast cancer and benign patients, isotypic IgG as negative control; SDS-PAGE, silver staining, differential bands excised and analysed by mass spectrometry; the named hits are among the proteins detected only in breast cancer platelets

| binding | Binder |
| --- | --- |
| binds | Sec31A (protein, UniProt O94979 1-1220) MKLKEVDRTAMQAWSPAQNHPIYLATGTSAQQLDATFSTNASLEIFELDLSDPSLDMKSCATFSSSHRYHKLIWGPYKMDSKGDVSGVLIAGGENGNIILYDPSKIIAGDKEVVIAQNDKHTGPVRALDVNIFQTNLVASGANESEIYIWDLNNFATPMTPGAKTQPPEDISCIAWNRQVQHILASASPSGRATVWDLRKNEPIIKVSDHSNRMHCSGLAWHPDVATQMVLASEDDRLPVIQMWDLRFASSPLRVLENHARGILAIAWSMADPELLLSCGKDAKILCSNPNTGEVLYELPTNTQWCFDIQWCPRNPAVLSAASFDGRISVYSIMGGSTDGLRQKQVDKLSSSFGNLDPFGTGQPLPPLQIPQQTAQHSIVLPLKKPPKWIRRPVGASFSFGGKLVTFENVRMPSHQGAEQQQQQHHVFISQVVTEKEFLSRSDQLQQAVQSQGFINYCQKKIDASQTEFEKNVWSFLKVNFEDDSRGKYLELLGYRKEDLGKKIALALNKVDGANVALKDSDQVAQSDGEESPAAEEQLLGEHIKEEKEESEFLPSSGGTFNISVSGDIDGLITQALLTGNFESAVDLCLHDNRMADAIILAIAGGQELLARTQKKYFAKSQSKITRLITAVVMKNWKEIVESCDLKNWREALAAVLTYAKPDEFSALCDLLGTRLENEGDSLLQTQACLCYICAGNVEKLVACWTKAQDGSHPLSLQDLIEKVVILRKAVQLTQAMDTSTVGVLLAAKMSQYANLLAAQGSIAAALAFLPDNTNQPNIMQLRDRLCRAQGEPVAGHESPKIPYEKQQLPKGRPGPVAGHHQMPRVQTQQYYPHGENPPPPGFIMHGNVNPNAAGQLPTSPGHMHTQVPPYPQPQPYQPAQPYPFGTGGSAMYRPQQPVAPPTSNAYPNTPYISSASSYTGQSQLYAAQHQASSPTSSPATSFPPPPSSGASFQHGGPGAPPSSSAYALPPGTTGTLPAASELPASQRTGPQNGWNDPPALNRVPKKKKMPENFMPPVPITSPIMNPLGDPQSQMLQQQPSAPVPLSSQSSFPQPHLPGGQPFHGVQQPLGQTGMPPSFSKPNIEGAPGAPIGNTFQHVQSLPTKKITKKPIPDEHLILKTTFEDLIQRCLSSATDPQTKRKLDDASKRLEFLYDKLREQTLSPTITSGLHNIARSIETRNYSEGLTMHTHIVSTSNFSETSAFMPVLKVVLTQANKLGV |
| binds | EXOC3L4 (protein, UniProt Q17RC7 1-722) MPSPQTDTPGPELQSPKEAEEPQTPAQGSRRTSSRKEPNAHRKDGTRLGLGSLRQAFSRASQRALTQVSKEDTGLFRRSSCSLFRSFRQALNDGPATGHSQATPEVPSGVMNGVSQQASTGAASEELKPEAEGKSVADLITERQLLAAFEQLLRLETLLVAEKASRTFEQDPTAFARRAMDVCLLYDGLAAEIGAIVRETLDSDGVDAAALAELARVVSAEEEAHPSPPDDGDFLRTPRRWRQHWEEAVRRSAQERVRRPGAGWAFGEAEGASGLAQLLAELGGLVRRDLQKVRQEVQPAYAAAGFPAWEVYLRAFHSAVAQRLQELARDARGCEQLYILLDWAANVYGSPDFLGAPGLALPAEPLPPLLAPDVWARLESDYTSFLEAKIASCFDSILQLEQSHWAAAEVPEVLQGLYQAPLSMDVHMLVAEHVKAAGAISAELEATTLRICTRALGLFVPRFEKAFLASEAVSEPHLGAYINACEELRTSLLSRFPGTQEELEKPLVTATCSFQKHLLQGLQRELQPLFRVVCTRDWLTQDWLHPLMDKVVTFAGHLQRVARPRAQETLQEVHRFVVREYLARALRPRERFRGMERMHGSQKMSLDAQAISDTFQGLGSEATWLDQAIQCVAEILGETYKDDIQRHLETLIRSYPDIRRDHILAILALRRLGRQRNQHLLQHTQDLLRAAAGAAGAEAPRGRVLFEEIKVPSAMAVLITCV |

Results are given in words; binding and its absence hold for the method and conditions named. Binding seen in cells or lysates may run through a third protein. Here binding means that the protein was enriched with, or labelled near, the bait; the list need not be complete.
